PubChem BioAssay AID1224826, NIAID | 2016
The deposit covers about 17,000 reagents; this is an unselected part. About 1,110 of all reagents (6.6%) count as active. 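Active means lowered or raised reporter signal; replicate intensities are raw and not normalised per plate.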 A number with no mark means an inactive call. Some reagents were tested in more than one well and are listed for each. Not all columns of the deposit are shown. Reagent sequences are not shown.

Aim: 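Regulators of Tlr4 signalling leading to Tnf-alpha expression in macrophages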 (primary screen)
Cell system: RAW264.7 G9 macrophages from mouse bearing reporters for p65 (GFP) and the Tnf promoter (mCherry)
Reagents: siRNA pool against mouse genes, 100 nM
Time to read-out: 16 h of LPS stimulation, after 2 days of siRNA transfection
Conditions: bacterial lipopolysaccharide (Salmonella minnesota R595), 10 ng/ml
Measured: 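Nuclear mCherry signal of the Tnf promoter reporter measured by imaging after background removal, scaled to each plate median and turned into robust z-scores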
Reading the numbers: Tnf reporter robust z-score: higher = stronger Tnf promoter reporter signal after LPS
Rule for the call: 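a well counts as active at a score of -1.3 or below (Tlr4 knock-down control median) or above 3 (raised signal); controls and wells holding fewer than 50 cells are excluded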
Meaning of the calls: active = Tnf reporter clearly lowered or raised; inactive = no clear change in Tnf reporter

Arhgef16 (Rho guanine nucleotide exchange factor 16) showed Tnf reporter robust z-score 1.95; fewer than 50 cells in well enough cells in well.
With knock-down of Fap (fibroblast activation protein) the results were Tnf reporter robust z-score -0.65; fewer than 50 cells in well enough cells in well.
Against Cpeb3 (cytoplasmic polyadenylation element binding protein 3), the values are Tnf reporter robust z-score 1.08; fewer than 50 cells in well enough cells in well.
Gtf2h5 (general transcription factor IIH, polypeptide 5) showed Tnf reporter robust z-score 0.32; fewer than 50 cells in well enough cells in well.
For Dapk1 (death associated protein kinase 1) the deposit lists fewer than 50 cells in well fewer than 50 cells per well; well left out of calls.
For Ccdc184 (coiled-coil domain containing 184), the entry reads Tnf reporter robust z-score -0.44; fewer than 50 cells in well enough cells in well.
Against Vps28 (vacuolar protein sorting 28), the values are fewer than 50 cells in well fewer than 50 cells per well; well left out of calls.
After knock-down of Ctsd (cathepsin D) the results were Tnf reporter robust z-score -0.83; fewer than 50 cells in well enough cells in well.
Homer3 (homer scaffolding protein 3) scored Tnf reporter robust z-score -0.41; fewer than 50 cells in well enough cells in well.
With knock-down of Cby1 (chibby family member 1, beta catenin antagonist), the screen gave Tnf reporter robust z-score -0.29; fewer than 50 cells in well enough cells in well.
Or2a12 (olfactory receptor family 2 subfamily A member 12) gave Tnf reporter robust z-score 4.09 (active); fewer than 50 cells in well enough cells in well.
Depletion of Pnn (pinin) gave: Tnf reporter robust z-score -0.35; fewer than 50 cells in well enough cells in well.

Copied from the list:
Value for Cpeb3 (cytoplasmic polyadenylation element binding protein 3) in “fewer than 50 cells in well”: enough cells in well
For “fewer than 50 cells in well”, Vps28 (vacuolar protein sorting 28) shows fewer than 50 cells per well; well left out of calls
Result for Arhgef16 (Rho guanine nucleotide exchange factor 16) under “Tnf reporter robust z-score”: 1.95

Further entries follow:
Depletion of Lefty2 (left-right determination factor 2) gave: Tnf reporter robust z-score 1.58; fewer than 50 cells in well enough cells in well.
For Ephb3 (Eph receptor B3) the deposit lists Tnf reporter robust z-score -0.66; fewer than 50 cells in well enough cells in well.
Bhlhe41 (basic helix-loop-helix family, member e41) showed Tnf reporter robust z-score 0.14; fewer than 50 cells in well enough cells in well.
Silencing of Stk26 (serine/threonine kinase 26) resulted in: Tnf reporter robust z-score 1.24; fewer than 50 cells in well enough cells in well.
For Stk26 (serine/threonine kinase 26), the values are Tnf reporter robust z-score 0.7; fewer than 50 cells in well enough cells in well.
Knock-down of Slc39a7 resulted in: fewer than 50 cells in well fewer than 50 cells per well; well left out of calls.
Aox1 (aldehyde oxidase 1) scored Tnf reporter robust z-score -0.15; fewer than 50 cells in well enough cells in well.
Against Fam243 (family with sequence similarity 243), the values are fewer than 50 cells in well fewer than 50 cells per well; well left out of calls.
With knock-down of Megf9 (multiple EGF-like-domains 9), the record shows Tnf reporter robust z-score 0.81; fewer than 50 cells in well enough cells in well.
